# Primary screen of a compound library

Data taken from ChEMBL document CHEMBL3988442, “University of Dundee, Small-Polar-MMV Screening Library” (2021).

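Whole-parasite assay of Trypanosoma brucei over 72 hours; the read-out is not stated. Tested at 30 µM. Direction is inferred from retests: higher values go with stronger inhibition. Values scatter widely below zero; nearly all retest evidence comes from the higher of the two concentrations used. About 64,000 compounds were tested under these conditions; 1.5% (about 940) showed 50% or more at least once.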

The filed quantity is “Percent Effect” (%).
The record does not define 0% and 100%; most values in the screen are far below 50% and negative numbers occur (in some assays of this library far below -100).
The compounds are a random part of those screened.

SMILES,effect
O=C(CCc1nc2cc(Br)cnc2[nH]1)NCc1cccnc1,-38.25
CC1=C[C@@H](CN2CCC(CO)CC2)[C@H](C(C)C)C[C@H]1Cc1nnc(C)o1,-16.98
CCc1ccccc1OCCN(C)C(=O)CCN1CCCCO1,-53.02
Cc1nc(N)sc1C(=O)N1CCCC(c2nccn2CCCN(C)C)C1 (stereo not shown),50.48
COC(=O)CCN(C)Cc1cc(Br)cs1,-12.73
CCN1CC2(CCC1=O)CCN(Cc1nncn1C(C)C)CC2,-19.83
COc1cccc(CCC2CCCN(C(=O)c3ccccn3)C2)c1 (stereo not shown),17.22
CO[C@H]1CN(C(C)C)C[C@@H]1NC(=O)Nc1cccc(SC)c1,-47.34
CN(C(=O)c1cccc(C#N)c1)c1nnc(C2CCOC2)s1 (stereo not shown),-18.85
COc1cccc(OCCNC(=O)CN2CCN(C)CC2C)c1 (stereo not shown),28.19
CN1CCC(c2nnc3ccc(C(=O)N4CCCCC4)cn23)C1.O=C(O)C(F)(F)F (stereo not shown),-27.9
COc1ccc2[nH]cc(-c3ccnc(NC4CCCC4)n3)c2c1,82.65
CC(Oc1ccccc1C(F)(F)F)C(=O)NCC(=O)N1CCCC1 (stereo not shown),-4.068
COC(=O)NCCC(=O)NC(C)Cc1cccc(Br)c1 (stereo not shown),3.358
O=C1NCC(C(=O)Nc2ncc(Cc3ccc(F)cc3F)s2)N1 (stereo not shown),-0.1121
CC(C)(C)OC(=O)N[C@H]1CCN(C(=O)c2cc(Cl)c[nH]2)C1,-32.52
CCSCCNc1nc(-c2ccccn2)nc2c1c(C)nn2C,-52.82
c1ccc(C2CCN(c3cncc(-n4cccn4)n3)CC2)cc1,9.414
[H][C@@]12CCN(S(=O)(=O)CC)C[C@]1(c1nnc(C)o1)CCO2,-5.378
CC(=O)c1nn(-c2cccc(Cl)c2)c(C)c1C(C)=O,-4.77
[H][C@]12CC[C@]([H])(CN(CC(=O)N(C)C)C1)N(C/C=C/c1ccc(F)cc1)C2,16.03
Cc1ccc(CN(C)C(=O)CN2CCCC2c2cnn(C)c2)cc1 (stereo not shown),-48.31
CO[C@H]1CN(C(=O)c2ccc3oc(C)cc3c2)CC[C@@]12CCCO2,7.505
CC(C#N)CN(C)C(=O)CCNC(=O)C(C)(C)C (stereo not shown),-20.84
Cc1ccc(-c2nc(CN3CCCC(C(=O)N(C)C)C3)cs2)o1 (stereo not shown),-2.675
Cc1ncc(-c2nc3cc(S(=O)(=O)N4CCCC4)ccc3n2C)cn1,-36.55
COc1cccc(-n2cc(-c3ccnc(NC(CO)C(C)C)n3)cn2)c1 (stereo not shown),-8.986
COc1cccc(N2CCN(C(=O)CO)CC2=O)c1,2.18
CCc1noc(CN(CC)Cc2cc3cc(C)ccc3[nH]c2=O)n1,14.52
Cc1cccc2c1nc1n2[C@@H](CNC(=O)c2cnccn2)COC1,-46.03

For reference, 2 entries once more:

SMILES	effect
Cc1cccc2c1nc1n2[C@@H](CNC(=O)c2cnccn2)COC1	-46.03
c1ccc(C2CCN(c3cncc(-n4cccn4)n3)CC2)cc1	9.414